Here are results for 67 molecules from PubChem BioAssay AID662 (National Center for Advancing Translational Sciences (NCATS), 2007).

Where “and” joins values, the source holds several entries; their conditions need not be identical. Equal entries are not always repeated. The list shows a part of the results. These are further read-outs of the screen, such as a control signal, another cell line or another target. No call is given for them. Most of these compounds were active or inconclusive in the main read-out, so they are no random draw. Words in brackets tell the shape of the fitted curve; partial curves, single points and poor fits give uncertain potencies.

The experiment in a line: Cell signaling CRE-BLA (Fsk stim). Conditions: CHO CRE-bla reporter (cAMP response element driving beta-lactamase), forskolin EC10, beta-lactamase ratio; measured here: 460 nm blue channel. The text has this: NIH Molecular Libraries Screening Centers Network [MLSCN]
NIH Chemical Genomics Center [NCGC]
Assay Provider: Marshall W. Nirenberg, U.S. National heart lung & blood institute
Memories persist for different lengths of time, from seconds or minutes to a lifetime. There are two kinds of memory: short-term memory (STM) and long-term memory (LTM). STM lasts for minutes to hours, which maybe mediated by modifications of molecules involved in synaptic functions. LTM lasts for days or longer, and may be due to the formation of new synapses or restructuring of existing synapses. LTM, but not STM, requires gene transcription and synthesis of proteins. CREB (cyclic-AMP Responsive Element Binding Protein) is one of the candidates plays an important role for enhancement of some types of LTM. CREB, a family of transcription factors, regulates the transcription of genes containing cAMP Responsive Elements (CRE). CRE is a nucleotide sequence often found in the promoter regions of genes that are binding sites for CREB.
Using a beta-lactamase reporter-gene under control of cAMP responsive element, a cell-based assay [CellSensor(TM) CRE-bla CHO developed by Invitrogen Corp.] was used to measure forskolin-induced signaling. Library compounds were measured for their ability to modulate positively or negatively the action of EC10 NKH 477, a water soluble forskolin, on reporter gene activity. Compounds were screened in a titration series in 1536-well format. Positive and negative modulators were identified based on the AC50 values derived from the screening data.
NCGC Assay Protocol Summary
2000 cells/5uL in Opti-MEM medium containing 0.5% dialyzed FBS, 0.1 mM NEAA, 1 mM sodium pyruvate and 10 mM HEPES was dispensed into 1536-well plates and cells were cultured at 37 degrees Celsius overnight. […] And then the plates were incubated at 37 degrees Celsius for 3 hours. 1 uL of CCF4-dye mixture was added to each well. After incubated at room temperature for 2 hours the plates were measured on an EnVision plate reader at Excitation 405nm, Emission1=460nm and Emission 2=530nm. The %Activity was determined from the ratio of 460nm/530nm.
Keywords: NIH Roadmap, MLSCN, MLSMR, qHTS, NCGC, CRE, beta-lactamase reporter-gene assay.
Regarding `Cn1cc(C(=O)NC2CCCCCCC2)c(=O)c2cc(S(=O)(=O)N3CCCC3)ccc21`, the AC50 was 0.0631 µM [falling, partial curve].

In the case of `CSc1nnc2c3cc(C)ccc3n(Cc3ccccc3)c2n1`, the half-maximal activity concentration (AC50) was 5.01 µM [rising, partial curve].

`CCSc1nc2ccccc2n1Cc1nc(N)nc(N(C)C)n1`: the AC50 was 10 µM [rising, partial curve].

Take `CCCCN(C(=O)NC(=O)Nc1ccccc1OC)S(C)(=O)=O`: the AC50 was 0.00398 µM [falling, full curve, poor fit].

Turning to `COC(=O)c1nnn(-c2nonc2N)c1CN1CCc2ccccc21`, the AC50 was 31.6 µM [falling, partial curve, poor fit].

Turning to `O=C(O)CC1SC(=Nc2ccccc2)N(c2ccccc2)C1=O` (configuration not stated), the AC50 was 0.631 µM [falling, full curve, poor fit].

`O=C(NCc1ccco1)c1cc(-c2cccs2)on1`: the AC50 is 12.6 µM [falling, partial curve, poor fit].

On to `COCC(C)OC(=O)C(C#N)c1nc2ccccc2nc1N1CCN(Cc2ccccc2)CC1` (configuration not stated), for which the AC50 was 12.6 µM [rising, partial curve].

Consider `O=C(Nc1ccccc1C(=O)OCc1nnc(-c2ccccc2)o1)c1ccco1`, for which the AC50 is 6.31 µM [rising, partial curve].

Take `COc1ccc(C(=O)CSc2nnc(-c3ccco3)n2CC2CCCO2)cc1` (configuration not stated): the AC50 is 0.126 µM [falling, partial curve, poor fit].

`COc1ncc2nc(-c3cc(F)cc(F)c3)c(=O)n(CCc3ccccc3)c2n1`: the AC50 is 12.6 µM [rising, partial curve].

`COc1ccc(C2C(C(=O)NCc3ccccn3)c3ccccc3C(=O)N2C)cc1OC` (configuration not stated): the AC50 was 0.00316 µM [falling, full curve, poor fit].

As for `CCOC(=O)C1OC1c1ccccc1` (configuration not stated), the AC50 is 10 µM [rising, single point].

For the molecule `CC1(C)CC(=O)C(C=NCCCn2ccnc2)=C(O)C1`, the AC50 was 0.398 µM [rising, full curve].

For the molecule `C=CCN1C(=O)CN=C1Nc1cc(C)ccc1C`, the AC50 is 0.00316 µM [falling, full curve, poor fit].

`Oc1c(I)cc(Cl)c2cccnc12`: the AC50 was 12.6 µM [falling, single point] and 31.6 µM [falling, single point].

In the case of `CCC(=O)OCc1cc2cccc(C)c2[nH]c1=O`, the AC50 was 5.01 µM [falling, full curve].

Turning to `COc1cc(OC)c(OC)cc1CN1CCN(c2ccccc2OC)CC1`, the AC50 is 0.00398 µM [falling, full curve, poor fit].

On to `COc1ccc2nc(N3CCCC(O)C3)c(C#N)cc2c1` (configuration not stated), for which the AC50 is 20 µM [rising, single point].

For `c1ccc2c(c1)oc1c(NCc3ccc4c(c3)OCO4)ncnc12`, the AC50 is 25.1 µM [rising, single point].

As to `CCn1c(=O)cc(SCC(=O)Nc2ccc3c(c2)OCO3)c2ccccc21`, the AC50 was 3.98 µM [rising, partial curve].

On to `CCc1cccc(NC(=O)CN(C)S(=O)(=O)c2cccc3nsnc23)c1`, for which the concentration at half-maximal activity (AC50) was 3.16 µM [rising, single point].

In the case of `C=CCN1C(=O)N(/C=C/C)c2cccc3cccc1c23`, the AC50 was 10 µM [rising, partial curve].

With `CC(=O)c1ccc(N2CCN(C(=O)C3CCCN(S(=O)(=O)c4cnc[nH]4)C3)CC2)cc1` (configuration not stated), the concentration at half-maximal activity (AC50) is 0.0631 µM [falling, partial curve, poor fit].

`CC1CCN(S(=O)(=O)c2ccc3c(c2)CCN3C(=O)CCC(=O)O)CC1`: the AC50 is 1 µM [falling, partial curve].

In the case of `COc1ccc(C2C3=C(CC(C)(C)CC3=O)N(CCN3CCOCC3)C3=C2C(=O)CC(C)(C)C3)cc1`, the AC50 was 10 µM [rising, partial curve].

As for `CCOC(=O)c1ccccc1NC(=O)CN(c1ccccc1OCC)S(C)(=O)=O`, the AC50 is 0.00316 µM [falling, full curve].

As to `CCCCn1c(SCc2ccc(Cl)cc2)nc2c1c(=O)[nH]c(=O)n2C`, the AC50 was 6.31 µM [rising, partial curve].

With `Cc1ccc(NC(=O)N2CCCN(Cc3ccc(F)cc3)C2)cc1C`, the AC50 is 5.01 µM [rising, single point].

Turning to `CC(=O)c1cccc(OCC(=O)c2cc(C)n(-c3cc(C)on3)c2C)c1`, the AC50 was 3.16 µM [falling, partial curve].

Take `O=C(Nc1ccc2nn(-c3ccccc3)nc2c1)c1cccnc1`: the half-maximal activity concentration (AC50) was 25.1 µM [rising, single point].

On to `Cc1cc(-c2ccco2)n2c(nc3ccccc32)c1C#N`, for which the AC50 is 3.16 µM [rising, single point].

For the molecule `Cc1cccn2c(=O)c3cc(C(=O)NC(C)c4ccccc4)c(=N)n(CCCn4ccnc4)c3nc12` (configuration not stated), the half-maximal activity concentration (AC50) is 12.6 µM [rising, partial curve].

Regarding `O=C1c2ccccc2C(=O)c2c1ccc(C(=O)O)c2-c1ccc2ccccc2c1`, the AC50 was 5.01 µM [rising, single point].

For the molecule `O=[N+]([O-])c1ccc2ncccc2c1CCc1c([N+](=O)[O-])ccc2ncccc12`, the AC50 was 2.51 µM [rising, partial curve].

As to `CCCCCn1c(CN2CCN(c3cccc(Cl)c3)CC2)nc2c1c(=O)[nH]c(=O)n2C`, the AC50 is 10 µM [rising, partial curve].

Consider `O=S(=O)(Cc1ccc(Cl)cc1)N1CCCC1`, for which the AC50 was 5.01 µM [falling, single point].

`Cc1cc(Nc2cccc(Cl)c2)n2ncnc2n1`: the AC50 is 15.8 µM [rising, partial curve].

`Fc1cccc(Cl)c1Cn1nnc2c(NCc3ccccn3)ncnc21`: the AC50 was 15.8 µM [rising, single point].

Regarding `C=CCn1cnc2c(c1=O)c1nc3ccccc3nc1n2/N=C/c1ccccn1`, the half-maximal activity concentration (AC50) was 3.16 µM [rising, partial curve].

With `N#Cc1cccc(-c2nc3cnc(N4CCOCC4)nc3n(Cc3ccc(F)cc3)c2=O)c1`, the AC50 was 7.94 µM [rising, partial curve].

Consider `O=C1NC(=O)C2(CCc3ccccc32)N1` (configuration not stated), for which the AC50 was 0.794 µM [falling, single point].

For `COc1ccc(-c2nnc(SCC(=O)NCc3ccco3)n2C)cc1`, the AC50 was 31.6 µM [falling, single point].

Take `COc1ccc(CNc2nc(-c3ccc(C(=O)N(C)C)cc3)nc3ccccc23)c(OC)c1`: the AC50 was 3.98 µM [rising, full curve].

For `Cc1nc2cnc(OCc3ccccc3)nc2n(Cc2ccc(F)cc2)c1=O`, the AC50 is 12.6 µM [rising, partial curve].

Take `CCCNC(=O)c1cc(-c2ccc(Br)cc2)on1`: the AC50 was 0.398 µM [falling, partial curve].

Consider `O=C(CSc1nnc2sc3ccccc3n12)c1ccco1`, for which the concentration at half-maximal activity (AC50) was 3.16 µM [falling, partial curve].

For the molecule `CN(C)CCNC(=O)Cn1nc(C(F)F)cc1C1CC1`, the AC50 is 5.01 µM [falling, single point].

With `O=C(Nc1ccc2oc(-c3ccccc3F)nc2c1)c1cncc(Br)c1`, the AC50 is 0.316 µM [rising, full curve].

For `CN(Cc1ccco1)c1nc(-c2ccc3c(c2)OCO3)nc2ccccc12`, the AC50 is 6.31 µM [rising, partial curve].

Regarding `CCOC(=O)C1Cn2c(nc3c(c2=O)C(C)(C)Cc2ccccc2-3)S1` (configuration not stated), the AC50 is 25.1 µM [rising, single point].

With `CSc1nnc2c3cc(F)ccc3n(Cc3ccccc3)c2n1`, the AC50 was 0.501 µM [rising, full curve].

As to `CCOC(=O)COc1cccc2c(=O)n(CC(=O)NCc3ccc4c(c3)OCO4)ccc12`, the AC50 is 12.6 µM [rising, partial curve].

Consider `Cc1cnc(C(=O)N2CCN(S(=O)(=O)c3ccc4ccccc4c3)CC2)cn1`, for which the AC50 was 0.01 µM [falling, full curve, poor fit].

For the molecule `COc1ccc(C2C(C(=O)Nc3cc(C)on3)c3ccccc3C(=O)N2C)cc1` (configuration not stated), the AC50 is 0.00398 µM [falling, full curve, poor fit].

As for `O=C(CCCN1C(=O)CSc2ncccc21)N1CCN(c2cccc(C(F)(F)F)c2)CC1`, the AC50 is 0.1 µM [falling, full curve].

Regarding `COc1ccccc1CNC(=O)CN(C)CC(=O)Nc1cccc(F)c1`, the AC50 was 3.16 µM [rising, single point].

In the case of `CCCCCCn1c(C(C)NC(=O)c2ccco2)nc2ccccc21` (configuration not stated), the AC50 is 10 µM [rising, single point].

Regarding `Cc1ccc2cc(CCNC(=O)C(C)C)c(=O)[nH]c2c1C`, the AC50 is 25.1 µM [falling, single point].

For the molecule `CCc1nc(N)c(C#N)c(-c2cccnc2)c1C`, the half-maximal activity concentration (AC50) is 10 µM [rising, partial curve].

Regarding `COC(=O)C1CCN(C(=O)c2ccccc2Oc2ccccc2)CC1`, the AC50 was 0.00316 µM [falling, full curve, poor fit].

In the case of `COCCn1c(SCC(=O)N2CCCc3ccccc32)nc2cccnc21`, the half-maximal activity concentration (AC50) was 25.1 µM [rising, single point].

With `O=S1(=O)C=C(Oc2ccc(F)cc2)c2ccccc21`, the concentration at half-maximal activity (AC50) is 0.00316 µM [falling, full curve, poor fit].

In the case of `COc1ccc(CCNC(=O)CN(c2ccccc2OC)S(C)(=O)=O)cc1`, the AC50 is 31.6 µM [falling, single point].

On to `Cc1cccc(N2CCN(C(=O)c3cc4c(C)nc5ccccc5c4o3)CC2)c1C`, for which the AC50 was 3.98 µM [rising, single point].

Consider `Cc1ccc(NC(=O)Cn2nnc(C(=O)NCc3ccccc3)c2N)cc1C`, for which the AC50 is 0.01 µM [falling, full curve, poor fit].

Take `CCCCOC(=O)n1c(SCC(=O)N(CC)CC)nc2ccccc21`: the AC50 is 10 µM [rising, partial curve].
